Consider four molecules from PMC10487539, “Glutaryl-CoA Dehydrogenase Misfolding in Glutaric Acidemia Type 1” (International Journal of Molecular Sciences, 2023).

Assay in all cases: native gel or EMSA; self-association; BN-PAGE and Western blot of lysates of transfected COS-7 cells (20 mM Hepes pH 7.0, 200 mM NaCl, 1% Triton X-100)
(A gel shift assay detects complexes by their altered migration in electrophoresis.)

Experiment [1] deals with human GCDH variant V400M expressed in COS-7 cells (pEF DEST 51 V5) (human) (UniProt Q92947).
Experiment [2] deals with human GCDH variant R227P expressed in COS-7 cells (pEF DEST 51 V5) (human) (UniProt Q92947).
Experiment [3] deals with human GCDH variant M263V expressed in COS-7 cells (pEF DEST 51 V5) (human) (UniProt Q92947).
Experiment [4] deals with human GCDH variant R138G expressed in COS-7 cells (pEF DEST 51 V5) (human) (UniProt Q92947).

Changes are numbered by the printed parent chain. Numbers in names are those of the source. Results are given in words; binding and its absence hold for the method and conditions named. Some entries that bind do so weakly or less than the wild type. Where a sequence is shown, tags or fusion partners need not be part of it.

B1: human GCDH variant V400M expressed in COS-7 cells (pEF DEST 51 V5) (enzyme, UniProt Q92947 45-438)
chain: RPEFDWQDPLVLEEQLTTDEILIRDTFRTYCQERLMPRILLANRNEVFHREIISEMGELGVLGPTIKGYGCAGVSSVAYGLLARELERVDSGYRSAMSVQSSLVMHPIYAYGSEEQRQKYLPQLAKGELLGCFGLTEPNSGSDPSSMETRAHYNSSNKSYTLNGTKTWITNSPMADLFVVWARCEDGCIRGFLLEKGMRGLSAPRIQGKFSLRASATGMIIMDGVEVPEENVLPGASSLGGPFGCLNNARYGIAWGVLGASEFCLHTARQYALDRMQFGVPLARNQLIQKKLADMLTEITLGLHACLQLGRLKDQDKAAPEMVSLLKRNNCGKALDIARQARDMLGGNGISDEYHMIRHAMNLEAVNTYEGTHDIHALILGRAITGIQAFTASK
Regarding B1, in experiment [1], the binding result is on record as “binds”.

B2: human GCDH variant R227P expressed in COS-7 cells (pEF DEST 51 V5) (enzyme, UniProt Q92947 45-438)
chain: B1 chain with R183P, M356V
For B2, in experiment [2], the binding result is given as “binds”.

B3: human GCDH variant M263V expressed in COS-7 cells (pEF DEST 51 V5) (enzyme, UniProt Q92947 45-438)
chain: B1 chain with M219V, M356V
B3: in experiment [3], the binding entry is reported as “binds”.

B4: human GCDH variant R138G expressed in COS-7 cells (pEF DEST 51 V5) (enzyme, UniProt Q92947 45-438)
chain: B1 chain with R94G, M356V
With B4, the binding entry in experiment [4] is “binds”.
